This experiment addresses T1, HA-TBC1D15 wild type (UniProt Q8TC07).
T1 sequence: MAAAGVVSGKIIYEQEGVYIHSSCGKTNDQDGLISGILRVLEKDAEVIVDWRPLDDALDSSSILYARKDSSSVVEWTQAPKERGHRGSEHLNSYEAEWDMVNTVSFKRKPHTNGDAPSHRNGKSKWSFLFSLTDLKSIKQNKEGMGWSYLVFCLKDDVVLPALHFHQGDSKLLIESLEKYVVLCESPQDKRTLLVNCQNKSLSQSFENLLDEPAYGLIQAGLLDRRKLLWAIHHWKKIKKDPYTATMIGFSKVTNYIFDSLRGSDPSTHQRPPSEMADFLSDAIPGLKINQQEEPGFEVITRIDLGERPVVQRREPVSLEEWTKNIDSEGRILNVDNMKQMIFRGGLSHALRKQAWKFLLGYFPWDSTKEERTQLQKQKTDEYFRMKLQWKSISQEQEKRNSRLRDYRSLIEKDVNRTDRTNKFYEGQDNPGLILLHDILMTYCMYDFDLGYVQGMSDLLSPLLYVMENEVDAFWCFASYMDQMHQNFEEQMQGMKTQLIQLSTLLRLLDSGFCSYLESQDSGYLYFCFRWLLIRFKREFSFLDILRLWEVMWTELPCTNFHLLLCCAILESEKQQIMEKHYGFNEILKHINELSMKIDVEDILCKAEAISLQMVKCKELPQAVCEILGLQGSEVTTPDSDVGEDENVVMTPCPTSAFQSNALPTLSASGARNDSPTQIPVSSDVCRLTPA
Put plainly: affinity purification with mass spectrometry.

These are yes or no findings as the source states them, for the method shown. In cells and extracts the contact can be indirect. These calls come from enrichment with a bait or labelling near it, and not all partners need be listed. Sequences can lack the tags named with a protein.

B1: KIF22 (endogenous) (protein, UniProt Q14807 1-665)
chain: MAAGGSTQQRRREMAAASAAAISGAGRCRLSKIGATRRPPPARVRVAVRLRPFVDGTAGASDPPCVRGMDSCSLEIANWRNHQETLKYQFDAFYGERSTQQDIYAGSVQPILRHLLEGQNASVLAYGPTGAGKTHTMLGSPEQPGVIPRALMDLLQLTREEGAEGRPWALSVTMSYLEIYQEKVLDLLDPASGDLVIREDCRGNILIPGLSQKPISSFADFERHFLPASRNRTVGATRLNQRSSRSHAVLLVKVDQRERLAPFRQREGKLYLIDLAGSEDNRRTGNKGLRLKESGAINTSLFVLGKVVDALNQGLPRVPYRDSKLTRLLQDSLGGSAHSILIANIAPERRFYLDTVSALNFAARSKEVINRPFTNESLQPHALGPVKLSQKELLGPPEAKRARGPEEEEIGSPEPMAAPASASQKLSPLQKLSSMDPAMLERLLSLDRLLASQGSQGAPLLSTPKRERMVLMKTVEEKDLEIERLKTKQKELEAKMLAQKAEEKENHCPTMLRPLSHRTVTGAKPLKKAVVMPLQLIQEQAASPNAEIHILKNKGRKRKLESLDALEPEEKAEDCWELQISPELLAHGRQKILDLLNEGSARDLRSLQRIGPKKAQLIVGWRELHGPFSQVEDLERVEGITGKQMESFLKANILGLAAGQRCGAS
Consider B1, for which the binding entry is “binds”.

The values above are taken from doi:10.1101/2022.12.14.520480.
